Test results: the supplement of paper PMC10060354, “Discovery of a small molecule ligand of FRS2 that inhibits invasion and tumor growth” (Cellular Oncology, 2022)
Many values rest on one well or one pass, so single values are uncertain.

Sequences of proteins named here, by UniProt entry; tags and fusion partners are left off. A change or cut given only in a name is not applied to a line headed by its entry.
UniProt Q8IU81: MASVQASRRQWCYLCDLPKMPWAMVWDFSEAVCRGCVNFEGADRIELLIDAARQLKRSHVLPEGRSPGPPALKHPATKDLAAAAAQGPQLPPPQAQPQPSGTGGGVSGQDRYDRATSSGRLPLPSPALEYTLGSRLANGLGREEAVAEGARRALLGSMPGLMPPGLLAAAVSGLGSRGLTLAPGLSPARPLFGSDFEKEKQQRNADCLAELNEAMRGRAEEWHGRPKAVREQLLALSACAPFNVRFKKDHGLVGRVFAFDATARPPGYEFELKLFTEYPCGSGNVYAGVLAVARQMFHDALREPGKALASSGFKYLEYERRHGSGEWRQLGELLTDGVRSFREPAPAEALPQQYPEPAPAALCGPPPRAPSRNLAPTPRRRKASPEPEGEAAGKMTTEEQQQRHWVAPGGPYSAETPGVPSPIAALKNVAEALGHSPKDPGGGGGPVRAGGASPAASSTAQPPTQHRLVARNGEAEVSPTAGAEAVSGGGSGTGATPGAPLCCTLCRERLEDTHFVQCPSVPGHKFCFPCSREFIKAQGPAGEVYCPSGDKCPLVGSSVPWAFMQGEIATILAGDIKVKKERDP
UniProt O00148, whole entry: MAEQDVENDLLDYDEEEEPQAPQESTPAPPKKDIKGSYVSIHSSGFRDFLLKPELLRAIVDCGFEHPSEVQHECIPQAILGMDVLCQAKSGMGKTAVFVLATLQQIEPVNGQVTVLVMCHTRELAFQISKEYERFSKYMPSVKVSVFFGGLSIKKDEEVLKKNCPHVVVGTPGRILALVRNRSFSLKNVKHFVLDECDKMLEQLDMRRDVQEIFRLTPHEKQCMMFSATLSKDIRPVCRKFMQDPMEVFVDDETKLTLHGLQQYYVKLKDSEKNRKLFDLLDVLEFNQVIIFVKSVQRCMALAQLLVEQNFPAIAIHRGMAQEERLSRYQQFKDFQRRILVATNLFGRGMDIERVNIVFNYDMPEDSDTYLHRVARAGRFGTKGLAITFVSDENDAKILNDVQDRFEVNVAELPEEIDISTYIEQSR
UniProt Q9NVV0: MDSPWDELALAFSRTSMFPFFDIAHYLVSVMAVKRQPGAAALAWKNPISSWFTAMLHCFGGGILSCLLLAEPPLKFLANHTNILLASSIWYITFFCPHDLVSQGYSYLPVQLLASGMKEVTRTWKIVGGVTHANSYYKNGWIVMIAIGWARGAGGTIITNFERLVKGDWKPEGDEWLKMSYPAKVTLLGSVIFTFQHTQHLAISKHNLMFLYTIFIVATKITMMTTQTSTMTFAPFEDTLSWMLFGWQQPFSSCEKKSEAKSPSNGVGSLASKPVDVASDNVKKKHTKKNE
UniProt Q9H8W4: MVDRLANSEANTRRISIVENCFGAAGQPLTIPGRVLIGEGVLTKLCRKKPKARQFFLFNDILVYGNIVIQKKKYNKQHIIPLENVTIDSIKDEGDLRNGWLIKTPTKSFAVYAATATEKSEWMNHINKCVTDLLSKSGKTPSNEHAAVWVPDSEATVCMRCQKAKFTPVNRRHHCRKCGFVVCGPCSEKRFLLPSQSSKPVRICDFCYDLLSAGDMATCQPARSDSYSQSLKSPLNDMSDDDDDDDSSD
UniProt O43301: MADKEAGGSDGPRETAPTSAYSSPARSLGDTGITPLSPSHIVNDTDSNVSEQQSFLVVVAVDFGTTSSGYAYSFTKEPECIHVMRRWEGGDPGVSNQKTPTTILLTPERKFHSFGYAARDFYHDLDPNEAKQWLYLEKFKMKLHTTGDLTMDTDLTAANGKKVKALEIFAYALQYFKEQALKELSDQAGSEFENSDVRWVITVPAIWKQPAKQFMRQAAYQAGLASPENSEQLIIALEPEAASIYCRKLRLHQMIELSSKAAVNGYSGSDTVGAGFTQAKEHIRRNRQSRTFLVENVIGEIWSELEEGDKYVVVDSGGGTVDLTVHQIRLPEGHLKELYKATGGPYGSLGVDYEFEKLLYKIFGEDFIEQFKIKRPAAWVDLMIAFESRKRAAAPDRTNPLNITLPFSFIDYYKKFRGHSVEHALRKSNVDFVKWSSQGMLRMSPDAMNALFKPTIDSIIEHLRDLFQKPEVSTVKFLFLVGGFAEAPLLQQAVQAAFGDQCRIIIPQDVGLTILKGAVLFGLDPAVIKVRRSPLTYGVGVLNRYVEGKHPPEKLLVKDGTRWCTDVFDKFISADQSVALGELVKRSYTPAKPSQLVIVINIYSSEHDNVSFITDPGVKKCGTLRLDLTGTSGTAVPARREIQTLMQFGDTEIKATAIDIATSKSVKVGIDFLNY
UniProt Q8WTV0: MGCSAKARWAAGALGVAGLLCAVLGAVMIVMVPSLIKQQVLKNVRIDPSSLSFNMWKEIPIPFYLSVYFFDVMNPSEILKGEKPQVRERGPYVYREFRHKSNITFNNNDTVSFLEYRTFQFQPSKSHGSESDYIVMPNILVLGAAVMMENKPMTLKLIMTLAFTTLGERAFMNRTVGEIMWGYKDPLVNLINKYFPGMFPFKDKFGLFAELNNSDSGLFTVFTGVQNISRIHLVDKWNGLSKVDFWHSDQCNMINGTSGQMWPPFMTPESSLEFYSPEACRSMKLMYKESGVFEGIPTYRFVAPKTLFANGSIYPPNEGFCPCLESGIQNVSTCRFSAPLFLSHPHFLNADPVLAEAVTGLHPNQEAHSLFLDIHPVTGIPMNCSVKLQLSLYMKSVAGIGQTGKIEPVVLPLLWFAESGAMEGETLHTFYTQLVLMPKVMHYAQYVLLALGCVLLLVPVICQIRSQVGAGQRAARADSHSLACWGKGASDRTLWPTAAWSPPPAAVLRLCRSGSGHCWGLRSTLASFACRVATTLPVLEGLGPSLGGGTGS
UniProt O95298, whole entry: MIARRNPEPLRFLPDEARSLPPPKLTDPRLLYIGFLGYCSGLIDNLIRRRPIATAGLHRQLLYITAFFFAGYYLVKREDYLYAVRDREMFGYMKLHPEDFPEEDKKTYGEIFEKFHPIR
UniProt Q9BXU8: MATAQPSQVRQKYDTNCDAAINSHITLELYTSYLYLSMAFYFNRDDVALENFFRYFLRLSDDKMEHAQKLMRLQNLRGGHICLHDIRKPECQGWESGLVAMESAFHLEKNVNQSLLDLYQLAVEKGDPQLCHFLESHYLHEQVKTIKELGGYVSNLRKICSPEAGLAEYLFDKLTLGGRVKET
UniProt Q8N2H4: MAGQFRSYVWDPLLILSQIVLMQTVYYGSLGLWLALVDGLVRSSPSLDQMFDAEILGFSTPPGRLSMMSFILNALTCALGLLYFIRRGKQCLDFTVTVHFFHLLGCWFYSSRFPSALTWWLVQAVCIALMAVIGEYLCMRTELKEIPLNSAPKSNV
UniProt P35249, whole entry: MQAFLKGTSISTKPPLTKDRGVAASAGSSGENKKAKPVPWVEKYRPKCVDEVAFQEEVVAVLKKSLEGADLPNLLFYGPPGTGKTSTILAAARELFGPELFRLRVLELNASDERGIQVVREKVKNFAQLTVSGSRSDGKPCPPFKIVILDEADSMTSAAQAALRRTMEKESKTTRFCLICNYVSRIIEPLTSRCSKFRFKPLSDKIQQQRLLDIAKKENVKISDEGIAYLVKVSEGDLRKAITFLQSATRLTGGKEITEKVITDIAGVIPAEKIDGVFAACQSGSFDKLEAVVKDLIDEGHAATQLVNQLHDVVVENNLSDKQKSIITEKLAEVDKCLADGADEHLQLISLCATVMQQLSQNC
UniProt P40939: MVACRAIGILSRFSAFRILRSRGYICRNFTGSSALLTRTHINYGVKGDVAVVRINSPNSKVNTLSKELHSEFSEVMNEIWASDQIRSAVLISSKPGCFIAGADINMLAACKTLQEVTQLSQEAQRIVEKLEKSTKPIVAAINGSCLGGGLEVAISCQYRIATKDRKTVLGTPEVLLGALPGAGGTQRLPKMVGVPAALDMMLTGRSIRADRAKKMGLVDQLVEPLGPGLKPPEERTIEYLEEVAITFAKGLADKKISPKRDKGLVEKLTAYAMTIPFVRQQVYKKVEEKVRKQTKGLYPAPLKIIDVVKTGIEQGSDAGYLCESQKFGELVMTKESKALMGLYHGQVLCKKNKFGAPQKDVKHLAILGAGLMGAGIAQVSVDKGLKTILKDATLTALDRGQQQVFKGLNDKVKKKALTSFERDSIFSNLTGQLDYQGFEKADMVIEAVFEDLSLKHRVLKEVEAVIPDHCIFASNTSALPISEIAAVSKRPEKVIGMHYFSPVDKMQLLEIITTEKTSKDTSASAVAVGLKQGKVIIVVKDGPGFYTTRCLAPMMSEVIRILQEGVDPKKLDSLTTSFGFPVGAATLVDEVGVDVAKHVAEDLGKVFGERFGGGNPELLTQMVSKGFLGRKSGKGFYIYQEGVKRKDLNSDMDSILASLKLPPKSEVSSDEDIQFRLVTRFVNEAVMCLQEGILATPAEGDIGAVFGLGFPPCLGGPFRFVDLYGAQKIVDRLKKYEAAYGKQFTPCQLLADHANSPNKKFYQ
UniProt Q9NPE3: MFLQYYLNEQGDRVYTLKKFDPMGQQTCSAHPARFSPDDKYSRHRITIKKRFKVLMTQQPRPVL
UniProt O60524: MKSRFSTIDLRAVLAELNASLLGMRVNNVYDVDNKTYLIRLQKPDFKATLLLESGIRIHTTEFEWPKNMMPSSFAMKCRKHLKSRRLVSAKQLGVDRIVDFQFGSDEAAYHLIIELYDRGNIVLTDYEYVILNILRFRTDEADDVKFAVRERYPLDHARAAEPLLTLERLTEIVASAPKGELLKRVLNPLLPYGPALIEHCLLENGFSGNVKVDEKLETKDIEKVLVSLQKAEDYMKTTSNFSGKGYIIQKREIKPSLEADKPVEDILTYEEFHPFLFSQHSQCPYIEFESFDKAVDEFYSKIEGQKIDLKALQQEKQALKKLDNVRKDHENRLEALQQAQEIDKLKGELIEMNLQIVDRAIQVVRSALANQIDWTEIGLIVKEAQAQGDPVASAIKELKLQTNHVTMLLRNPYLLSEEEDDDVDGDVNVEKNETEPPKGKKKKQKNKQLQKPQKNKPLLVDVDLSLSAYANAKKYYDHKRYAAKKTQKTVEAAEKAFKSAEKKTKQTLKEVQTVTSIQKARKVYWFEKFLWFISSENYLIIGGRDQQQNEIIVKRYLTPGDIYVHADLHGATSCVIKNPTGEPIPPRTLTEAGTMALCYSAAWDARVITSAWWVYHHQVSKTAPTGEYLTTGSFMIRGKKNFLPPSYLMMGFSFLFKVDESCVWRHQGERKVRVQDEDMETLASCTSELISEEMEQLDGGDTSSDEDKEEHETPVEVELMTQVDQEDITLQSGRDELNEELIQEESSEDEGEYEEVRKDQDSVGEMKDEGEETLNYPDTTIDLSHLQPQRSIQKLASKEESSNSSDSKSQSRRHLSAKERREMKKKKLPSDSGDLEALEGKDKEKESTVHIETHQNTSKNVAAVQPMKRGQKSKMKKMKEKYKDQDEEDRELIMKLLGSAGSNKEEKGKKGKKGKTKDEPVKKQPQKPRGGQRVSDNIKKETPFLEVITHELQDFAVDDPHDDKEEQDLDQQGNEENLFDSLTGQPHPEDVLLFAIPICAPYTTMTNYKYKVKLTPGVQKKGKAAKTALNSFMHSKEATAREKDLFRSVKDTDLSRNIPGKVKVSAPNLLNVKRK
UniProt P61812: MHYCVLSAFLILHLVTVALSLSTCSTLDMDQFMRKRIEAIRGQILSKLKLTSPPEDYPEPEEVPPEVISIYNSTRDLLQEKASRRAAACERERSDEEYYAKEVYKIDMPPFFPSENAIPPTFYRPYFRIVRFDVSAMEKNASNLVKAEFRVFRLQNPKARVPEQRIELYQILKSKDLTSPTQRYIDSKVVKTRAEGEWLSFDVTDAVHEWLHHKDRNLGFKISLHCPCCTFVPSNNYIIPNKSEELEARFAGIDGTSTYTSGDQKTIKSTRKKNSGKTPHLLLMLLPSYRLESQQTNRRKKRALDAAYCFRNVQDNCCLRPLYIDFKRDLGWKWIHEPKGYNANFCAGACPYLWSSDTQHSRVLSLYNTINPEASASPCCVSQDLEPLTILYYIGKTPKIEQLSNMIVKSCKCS
UniProt Q96BT7: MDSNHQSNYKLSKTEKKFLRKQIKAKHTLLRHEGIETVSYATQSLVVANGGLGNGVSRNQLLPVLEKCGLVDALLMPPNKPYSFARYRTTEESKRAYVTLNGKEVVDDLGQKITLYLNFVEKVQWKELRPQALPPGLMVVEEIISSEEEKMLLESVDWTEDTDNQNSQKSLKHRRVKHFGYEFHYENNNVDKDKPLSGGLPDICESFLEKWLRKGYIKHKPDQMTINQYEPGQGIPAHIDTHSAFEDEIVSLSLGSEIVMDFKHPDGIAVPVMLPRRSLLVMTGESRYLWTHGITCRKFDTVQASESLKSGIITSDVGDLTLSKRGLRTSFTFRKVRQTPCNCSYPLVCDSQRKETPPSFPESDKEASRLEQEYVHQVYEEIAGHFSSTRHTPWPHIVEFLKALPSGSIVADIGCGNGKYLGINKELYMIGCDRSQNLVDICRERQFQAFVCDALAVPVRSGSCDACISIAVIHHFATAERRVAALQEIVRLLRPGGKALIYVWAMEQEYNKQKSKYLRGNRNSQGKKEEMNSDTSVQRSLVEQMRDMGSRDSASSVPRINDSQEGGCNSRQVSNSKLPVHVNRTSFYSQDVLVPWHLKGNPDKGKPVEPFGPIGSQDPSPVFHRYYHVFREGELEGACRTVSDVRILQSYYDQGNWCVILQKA

Compound: [O-][N+](C(C1=C(C(O)=C2)NC(C(C=C3)=CC=C3Cl)C4C1C=CC4)=C2Cl)=O
Test: melting temperature shift (compound 7 minus DMSO); higher = compound stabilises the protein
Conditions: 10 µM
Procedure: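 Thermal proteome profiling (TMT mass spectrometry) in intact DAOY medulloblastoma cells or DAOY lysates treated with 10 µM compound 7 or DMSO, heated at 10 temperatures from 40.5 to 73.8 °C for 3 min. Melting curves were fitted with the Bioconductor TPP package, and the melting point difference between compound and vehicle is reported per protein (single curve per condition).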

[1] = system: DAOY cell lysate, treatment time: 20 min, 4 °C
[2] = system: intact DAOY cells, treatment time: 90 min, 37 °C

Target | melting temperature shift [1] | melting temperature shift [2]
SIGMAR1 (UniProt Q99720) | 3.32 °C | –
ARFGEF2 (UniProt Q9Y6D5) | -0.972 °C | -1.21 °C
HADHB (UniProt P55084) | 0.858 °C | 0.314 °C
ANP32E (UniProt Q9BTT0) | 0.967 °C | 0.442 °C
WDR26 (UniProt Q9H7D7) | -0.754 °C | 0.0144 °C
IRF2BP1 (UniProt Q8IU81) | -0.602 °C | 0.249 °C
DDX39A (UniProt O00148) | 0.199 °C | -0.4 °C
POLR2D (UniProt O15514) | -1.38 °C | -0.96 °C
TMEM38B (UniProt Q9NVV0) | -1.6 °C | -1.29 °C
PLEKHF2 (UniProt Q9H8W4) | -0.927 °C | -0.331 °C
FXN (UniProt Q16595) | 0.551 °C | –
TMEM97 (UniProt Q5BJF2) | 2.39 °C | -0.323 °C
TSC22D1 (UniProt Q15714) | – | 2.5 °C
ANXA11 (UniProt P50995) | -0.49 °C | 0.487 °C
UniProt Q9BVG4 | -0.917 °C | 0.837 °C
TP53I3 (UniProt Q53FA7) | 0.478 °C | 2.64 °C
PYGL (UniProt P06737) | -0.423 °C | 0.205 °C
STRBP (UniProt Q96SI9) | 1.32 °C | 0.15 °C
LUC7L (UniProt Q9NQ29) | -0.616 °C | -1.48 °C
DDX46 (UniProt Q7L014) | -0.618 °C | -0.902 °C
HSPA12A (UniProt O43301) | -0.382 °C | –
UniProt O60318 | 2.72 °C | –
TCP1 (UniProt P17987) | -0.331 °C | -0.495 °C

Target | melting temperature shift [1] | melting temperature shift [2]
IDE (UniProt P14735) | -0.0662 °C | 0.434 °C
MGME1 (UniProt Q9BQP7) | -0.407 °C | -0.0517 °C
MFF (UniProt Q9GZY8) | 1.05 °C | 0.253 °C
UniProt P09488 | -0.352 °C | -1.95 °C
PTPN2 (UniProt P17706) | -0.755 °C | -0.876 °C
CEP170B (UniProt Q9Y4F5) | – | 0.719 °C
UniProt P23470 | 0.828 °C | –
SCARB1 (UniProt Q8WTV0) | 2.55 °C | -1.35 °C
PARS2 (UniProt Q7L3T8) | -0.733 °C | -0.217 °C
TMEM70 (UniProt Q9BUB7) | 1.25 °C | -1.66 °C
UniProt P61803 | 1.34 °C | -0.654 °C
SPC25 (UniProt Q9HBM1) | 0.00287 °C | 1.83 °C
CFL1 (UniProt P23528) | -1.35 °C | 1.2 °C
CLIP1 (UniProt P30622) | -0.367 °C | –
ATRX (UniProt P46100) | 0.899 °C | 0.474 °C
TAP1 (UniProt Q03518) | 0.812 °C | -1.29 °C
UniProt Q9GZM8 | – | -0.152 °C
NDUFC2 (UniProt O95298) | 1.37 °C | 1.37 °C
RCL1 (UniProt Q9Y2P8) | 0.572 °C | -0.157 °C
ACADM (UniProt P11310) | 0.772 °C | -0.138 °C
PRRC2C (UniProt Q9Y520) | -0.0195 °C | –
RAE1 (UniProt P78406) | -0.245 °C | 1.01 °C
ACBD5 (UniProt Q5T8D3) | 1.13 °C | -0.377 °C

Target | melting temperature shift [1] | melting temperature shift [2]
UniProt Q9BXU8 | 2.11 °C | –
SRC (UniProt P12931) | -2.42 °C | -2.04 °C
UniProt Q8N2H4 | 1.48 °C | –
UniProt O14950 | -0.207 °C | -0.879 °C
RFC4 (UniProt P35249) | -0.363 °C | -1.19 °C
XPOT (UniProt O43592) | -1.2 °C | -0.745 °C
GALNT10 (UniProt Q86SR1) | 3.12 °C | –
SPTAN1 (UniProt Q13813) | -0.0965 °C | 0.749 °C
ZNF638 (UniProt Q14966) | 0.641 °C | 0.288 °C
TSPYL1 (UniProt Q9H0U9) | 1.43 °C | –
C2CD5 (UniProt Q86YS7) | -0.0662 °C | -2.32 °C
UniProt Q53EQ6 | – | -0.553 °C
CUL5 (UniProt Q93034) | -0.732 °C | -0.841 °C
HADHA (UniProt P40939) | 1.26 °C | 0.966 °C
STX5 (UniProt Q13190) | 0.15 °C | -1.4 °C
MRPL24 (UniProt Q96A35) | 0.527 °C | -1.42 °C
TAB1 (UniProt Q15750) | -0.563 °C | 0.459 °C
CDC42BPA (UniProt Q5VT25) | – | -0.0948 °C
UniProt Q9H9B1 | -0.61 °C | -0.272 °C
UniProt A6NIE6 | – | -1.06 °C
UniProt Q96Q89 | 1.33 °C | –
UniProt Q6NVV1 | – | -0.382 °C
COLGALT1 (UniProt Q8NBJ5) | 0.617 °C | 0.375 °C

Target | melting temperature shift [1] | melting temperature shift [2]
ATAD1 (UniProt Q8NBU5) | -0.254 °C | 0.275 °C
EXOSC7 (UniProt Q15024) | 0.255 °C | –
USP19 (UniProt O94966) | 0.598 °C | 0.271 °C
PPP4R1 (UniProt Q8TF05) | -1.12 °C | 0.0915 °C
UniProt O00398 | -1.59 °C | –
UniProt Q8NG04 | -2.05 °C | –
SELENBP1 (UniProt Q13228) | 1.26 °C | –
UniProt Q9P1U1 | – | 0.116 °C
PJA2 (UniProt O43164) | 0.174 °C | -1.45 °C
VBP1 (UniProt P61758) | -0.855 °C | 0.0431 °C
UniProt Q03164 | 2.12 °C | –
WNK3 (UniProt Q9BYP7) | – | 1.06 °C
ZC3H7B (UniProt Q9UGR2) | 0.787 °C | -0.249 °C
NOP10 (UniProt Q9NPE3) | 0.487 °C | –
ACOT13 (UniProt Q9NPJ3) | 0.83 °C | -0.752 °C
UniProt P18583 | 0.853 °C | 7.34 °C
UniProt Q9BT88 | – | 1.39 °C
UniProt A8MPP1 | -0.612 °C | –
PLEC (UniProt Q15149) | – | 1.94 °C
RNF167 (UniProt Q9H6Y7) | 2.23 °C | 1.41 °C
BRIX1 (UniProt Q8TDN6) | 0.672 °C | –
SKIV2L2 (UniProt P42285) | -0.0375 °C | -0.284 °C
HEATR1 (UniProt Q9H583) | 0.211 °C | 0.388 °C

No new results follow: an excerpt of the list.
Target | melting temperature shift [1] | melting temperature shift [2]
SCARB1 (UniProt Q8WTV0) | 2.55 °C | -1.35 °C
PARS2 (UniProt Q7L3T8) | -0.733 °C | -0.217 °C

Next part:

Target | melting temperature shift [1] | melting temperature shift [2]
SMARCE1 (UniProt Q969G3) | -0.276 °C | -0.887 °C
ABCF1 (UniProt Q8NE71) | -0.223 °C | -1.54 °C
DHRS4 (UniProt Q9BTZ2) | 1.18 °C | 0.27 °C
NEMF (UniProt O60524) | -1.27 °C | 0.24 °C
TMEM87A (UniProt Q8NBN3) | 0.0692 °C | –
UniProt P61812 | 0.968 °C | 0.962 °C
SETDB1 (UniProt Q15047) | -0.828 °C | -0.471 °C
MSTO1 (UniProt Q9BUK6) | -0.509 °C | -0.672 °C
UBA2 (UniProt Q9UBT2) | -0.484 °C | 0.116 °C
NUP50 (UniProt Q9UKX7) | -0.229 °C | –
DYNC1I2 (UniProt Q13409) | -0.472 °C | 0.107 °C
UniProt Q16363 | 0.411 °C | -1.09 °C
UniProt P19525 | -0.4 °C | -0.0981 °C
UniProt Q8IXU6 | 0.686 °C | 4.14 °C
UniProt Q9P2X0 | 3.62 °C | 1.94 °C
UniProt Q96BT7 | 0.527 °C | 4.01 °C
UniProt Q4L180 | 2.02 °C | 0.986 °C
UQCRB (UniProt P14927) | 1.11 °C | –
RPL4 (UniProt P36578) | 0.789 °C | -0.508 °C
TTC4 (UniProt O95801) | -0.121 °C | -0.162 °C
MARS2 (UniProt Q96GW9) | -0.129 °C | –
UniProt P52926 | 5.67 °C | –

Record cards (already shown). Order of values: melting temperature shift [1] | melting temperature shift [2]
RPL4 (UniProt P36578) is listed with 0.789 °C | -0.508 °C
WDR26 (UniProt Q9H7D7) is listed with -0.754 °C | 0.0144 °C
